According to paper doi:10.1101/2020.01.16.909523 (bioRxiv, 2020):
No constants are given. Whether binding was seen depends on the method and setting. In cells and extracts the contact can be indirect. Some binding calls cover weakened binding; strength is not graded here.

Target: PPE4mt (N-terminal PPE domain) (Mycobacterium tuberculosis) (UniProt P9WI43)
Test: pull-down

For EspG3mt (from UniProt P9WJC7 1-295), the binding was “binds”.
